PubChem BioAssay AID1671190 (National Center for Advancing Translational Sciences (NCATS), 2021)
About 6,100 (1.1%) of roughly 580,000 compounds were called active. This list was built around the results that the source calls inconclusive (neither active nor inactive); the mix of calls is not that of the screen. Calls come from the whole dose curve; as a rule, active = well fitted inhibition curve with a large enough effect; inconclusive = small, poorly fitted or top-dose-only effect, or another doubt; inactive = no such curve, though single readings can be large or run the other way. Potencies of inconclusive entries are doubtful fits and often do not repeat.

Amino acid sequences for entries named in this document (tags omitted). A change or cut given only in a name is not applied to a line headed by its entry.
UniProt P18054: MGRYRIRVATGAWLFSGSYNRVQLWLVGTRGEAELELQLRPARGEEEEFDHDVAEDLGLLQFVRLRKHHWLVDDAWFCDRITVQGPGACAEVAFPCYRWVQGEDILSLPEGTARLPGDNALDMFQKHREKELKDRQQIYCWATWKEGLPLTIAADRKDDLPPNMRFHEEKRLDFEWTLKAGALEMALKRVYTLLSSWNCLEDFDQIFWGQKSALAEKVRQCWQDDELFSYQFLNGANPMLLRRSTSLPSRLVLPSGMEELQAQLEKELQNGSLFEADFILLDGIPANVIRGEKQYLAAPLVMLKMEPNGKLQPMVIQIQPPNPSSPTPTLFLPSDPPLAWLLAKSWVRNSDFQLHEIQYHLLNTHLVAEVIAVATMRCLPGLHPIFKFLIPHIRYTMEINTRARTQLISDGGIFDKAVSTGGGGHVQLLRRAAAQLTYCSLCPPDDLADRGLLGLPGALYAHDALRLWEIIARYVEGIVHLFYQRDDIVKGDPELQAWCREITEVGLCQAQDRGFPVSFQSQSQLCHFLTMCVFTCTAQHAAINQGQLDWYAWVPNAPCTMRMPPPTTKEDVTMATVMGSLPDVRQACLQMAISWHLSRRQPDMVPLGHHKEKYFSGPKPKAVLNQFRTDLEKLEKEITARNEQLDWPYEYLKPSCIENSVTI

Molecular target: Polyunsaturated fatty acid lipoxygenase ALOX12 (Homo sapiens) (UniProt P18054)
Assay: Primary qHTS assay for inhibitors of human arachidonate 12S-lipoxygenase (ALOX12): Round 2
Conditions: purified 12hLO, xylenol orange hydroperoxide absorbance; activity change, negative = inhibition: at 108 µM (top of the series) unless noted
In short: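 Purified human 12hLO at 150 nM in 25 mM Hepes, 0.01% Triton X-100, pH 7.0, preincubated 15 min at room temperature with compound. Reaction started with 40 uM arachidonic acid, 30 min at room temperature. Hydroperoxide measured by Fe-xylenol orange, 573/405 nm absorbance ratio.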
% is set by controls: 0 for no effect and ±100 for the full control effect; potency is the fitted concentration of half-maximal effect.

Compound | Potency | activity change, negative = inhibition
Cc1ccc2nc3c(c(Nc4ccccc4)c2c1)CCC3 | inconclusive: 12.6 µM [inhibitor, partial curve, poor fit] | –
CC(NC(=S)NCCc1ccccc1)c1ccc(C(C)(C)C)cc1 (centres undefined) | active: 39.8 µM | –
COC(=O)C1=NN[C@H](C(=O)OC(C)(C)C)[C@H]1c1ccccc1 | – | inactive: -23.9%
COc1ccc(-c2cc(C(=O)NC3CC(C)(C)NC(C)(C)C3)c3ccccc3n2)cc1OC | inconclusive: 7.94 µM [inhibitor, full curve, poor fit] | –
COC(=O)N/N=C/c1cn(CCOc2ccccc2)c2ccccc12 | inconclusive: 100 µM [inhibitor, partial curve, poor fit] | –
CCc1ccccc1N1CC(c2nc3ccccc3n2CCCOc2ccc(Cl)cc2)CC1=O (centres undefined) | – | inconclusive: -31.3% [inhibitor]
COCCSc1nc2c(c(=O)[nH]c(=O)n2C)n1Cc1ccccc1Cl | inconclusive: 50.1 µM [inhibitor, partial curve, poor fit] | –
O=c1c2c(nc3nc(NCc4c(Cl)cccc4Cl)[nH]n13)CCC2 | inconclusive: 50.1 µM [inhibitor, single point] | –
Clc1ccc(Nc2nc(C3CC3)cs2)cc1 | inconclusive: 89.1 µM [inhibitor, partial curve, poor fit] | –
O=C(O)/C=C/C(=O)Nc1ccc(Cl)c(C(F)(F)F)c1 | inconclusive: 39.8 µM [inhibitor, partial curve, poor fit] | –
CCn1nc(NC(=O)Cc2ccc(OC)cc2)c2cc3cc(C)ccc3nc21 | inconclusive: 50.1 µM [inhibitor, partial curve, poor fit] | –
CCOc1ccccc1NC(=O)Cn1c(=O)n(CCC(=O)NCc2ccc3c(c2)OCO3)c(=O)c2ccccc21 | inconclusive: 14.1 µM [inhibitor, partial curve, poor fit] | –
CC(NC(=O)COC(=O)c1ccc[nH]c1=O)c1ccccc1 (centres undefined) | inconclusive: 35.5 µM [inhibitor, partial curve, poor fit] | –
Cc1ccccc1NC(=O)c1c(NC(=O)COCC(=O)O)sc2c1CCCCC2 | inconclusive: 44.7 µM [inhibitor, partial curve, poor fit] | –
CC(C)c1ccc2c(c1)C1(CC(=O)Nc3c1cnn3Cc1ccccc1Cl)C(=O)N2C (centres undefined) | inconclusive: 3.16 µM [inhibitor, full curve, poor fit] | –
CCC1(C)Cc2ccccc2-c2[nH]c(=S)[nH]c(=O)c21 (centres undefined) | inconclusive: 28.2 µM [inhibitor, partial curve, poor fit] | –
COc1ccc(-n2cnc3c2NC(=O)CC3c2cccnc2)c(OC)c1 (centres undefined) | inconclusive: 25.1 µM [inhibitor, partial curve, poor fit] | –
CC(=O)C1C(=O)C=C(c2ccco2)CC1c1ccccc1 (centres undefined) | inconclusive: 20 µM [inhibitor, partial curve, poor fit] | –
CC(=O)c1cnn(-c2cc(Nc3ccc(F)cc3)ncn2)c1C | – | inactive: 1.65%
O=C(N[C@@H]1CNC[C@H]1O)C1CCN(c2nc(-c3ccccc3)nc3c2CCC3)CC1 | inconclusive: 50.1 µM [inhibitor, partial curve, poor fit] | –
Fc1cccc(F)c1/C=N/N1CCOCC1 | – | inactive: -7.81%
CCc1ccc(/C=N/n2c(C3CCCCC3)n[nH]c2=S)cc1 | inconclusive: 39.8 µM [inhibitor, partial curve, poor fit] | –

15 entries out of the list, arranged by heavy-atom count, ascending.
Compound | Potency | activity change, negative = inhibition
Clc1ccc(Nc2nc(C3CC3)cs2)cc1 | inconclusive: 89.1 µM [inhibitor, partial curve, poor fit] | –
CCC1(C)Cc2ccccc2-c2[nH]c(=S)[nH]c(=O)c21 (centres undefined) | inconclusive: 28.2 µM [inhibitor, partial curve, poor fit] | –
CC(=O)C1C(=O)C=C(c2ccco2)CC1c1ccccc1 (centres undefined) | inconclusive: 20 µM [inhibitor, partial curve, poor fit] | –
CCc1ccc(/C=N/n2c(C3CCCCC3)n[nH]c2=S)cc1 | inconclusive: 39.8 µM [inhibitor, partial curve, poor fit] | –
O=c1c2c(nc3nc(NCc4c(Cl)cccc4Cl)[nH]n13)CCC2 | inconclusive: 50.1 µM [inhibitor, single point] | –
CC(NC(=S)NCCc1ccccc1)c1ccc(C(C)(C)C)cc1 (centres undefined) | active: 39.8 µM | –
COC(=O)N/N=C/c1cn(CCOc2ccccc2)c2ccccc12 | inconclusive: 100 µM [inhibitor, partial curve, poor fit] | –
COc1ccc(-n2cnc3c2NC(=O)CC3c2cccnc2)c(OC)c1 (centres undefined) | inconclusive: 25.1 µM [inhibitor, partial curve, poor fit] | –
CCn1nc(NC(=O)Cc2ccc(OC)cc2)c2cc3cc(C)ccc3nc21 | inconclusive: 50.1 µM [inhibitor, partial curve, poor fit] | –
Cc1ccccc1NC(=O)c1c(NC(=O)COCC(=O)O)sc2c1CCCCC2 | inconclusive: 44.7 µM [inhibitor, partial curve, poor fit] | –
O=C(N[C@@H]1CNC[C@H]1O)C1CCN(c2nc(-c3ccccc3)nc3c2CCC3)CC1 | inconclusive: 50.1 µM [inhibitor, partial curve, poor fit] | –
CC(C)c1ccc2c(c1)C1(CC(=O)Nc3c1cnn3Cc1ccccc1Cl)C(=O)N2C (centres undefined) | inconclusive: 3.16 µM [inhibitor, full curve, poor fit] | –
COc1ccc(-c2cc(C(=O)NC3CC(C)(C)NC(C)(C)C3)c3ccccc3n2)cc1OC | inconclusive: 7.94 µM [inhibitor, full curve, poor fit] | –
CCc1ccccc1N1CC(c2nc3ccccc3n2CCCOc2ccc(Cl)cc2)CC1=O (centres undefined) | – | inconclusive: -31.3% [inhibitor]
CCOc1ccccc1NC(=O)Cn1c(=O)n(CCC(=O)NCc2ccc3c(c2)OCO3)c(=O)c2ccccc21 | inconclusive: 14.1 µM [inhibitor, partial curve, poor fit] | –

(listing goes on)

Compound | Potency | activity change, negative = inhibition
COc1ccc(C(=O)NCc2csc(-c3cccs3)n2)cc1 | inconclusive: 112 µM [inhibitor, single point] | –
COc1ccc(N2C(=O)CC(Sc3nc4ccccc4s3)C2=O)cc1OC (centres undefined) | – | inactive: -1.86%
Cc1ccc(CNC(=O)Cn2cc(S(=O)(=O)Cc3ccccc3Cl)c3ccccc32)cc1 | inconclusive: 112 µM [inhibitor, partial curve, poor fit] | –
COCCNC(=O)C(C#N)c1nc2ccccc2nc1N1CCCCCC1 (centres undefined) | inconclusive: 79.4 µM [inhibitor, single point] | –
Cc1c(N(C)S(=O)(=O)c2cccc(C(=O)NC(C)C)c2)c(=O)n(-c2ccccc2)n1C | inconclusive: 50.1 µM [inhibitor, partial curve, poor fit] | –
CCOc1ccc(NC(=O)C(CC)n2c(=O)c(-c3ccccc3NC(C)=O)nc3ccccc32)cc1 (centres undefined) | inconclusive: 89.1 µM [inhibitor, partial curve, poor fit] | –
N#CC1(C(=O)Nc2ccc(C(=O)Nc3ccccc3)cc2)CCCC1 | inconclusive: 224 µM [inhibitor, partial curve, poor fit] | –
COc1ccc(CC(=O)N2CC[C@H]3COC(=O)N3c3cc(F)ccc3C2)cc1 | – | inactive: 23.5% [at 176 µM]
CC1CCN(C(=O)CSc2nc(=O)n3ccccc3n2)CC1 | inconclusive: 63.1 µM [inhibitor, partial curve, poor fit] | –
CN(C)c1ccc2cc(S(=O)(=O)O)cc(O)c2c1 | inconclusive: 14.1 µM [inhibitor, full curve] | –
Nc1nnc(SCC(=O)Nc2ccc(Cl)cc2)s1 | inconclusive: 126 µM [inhibitor, partial curve, poor fit] | –
COc1ccc(NC(=O)C2(C)CCCCC(=O)N2)cc1F (centres undefined) | inconclusive: 35.5 µM [inhibitor, full curve, poor fit] | –
Cc1ccc(S(=O)(=O)N2CCOCC2)cc1NC(=O)CNC1CCCC1 | inconclusive: 2.24 µM [inhibitor, full curve, poor fit] | –
COc1ccc(Cl)c2sc(N3CCN(C(=O)c4ccco4)CC3)nc12 | inconclusive: 35.5 µM [inhibitor, partial curve, poor fit] | –
O=C(Cn1ccc2ccccc2c1=O)NCC(=O)Nc1ccc(F)cc1F | – | inactive: -9.17%
COc1ccccc1-c1cncnc1-n1ccnc1 | active: 25.1 µM | –
COc1cccc(S(=O)(=O)Nc2ccc3c(c2)C(=O)N(C)C[C@H](OC)[C@H](C)CN(Cc2ccccc2F)[C@@H](C)CO3)c1 | inconclusive: 89.1 µM [inhibitor, single point] | –
NC(C(=O)O)C(CC(=O)O)c1ccc(Cl)cc1 (centres undefined) | – | inactive: 0.698%
O=C(/C=C/c1ccc(-c2ccccc2)o1)c1ccccc1 | inconclusive: 112 µM [inhibitor, partial curve, poor fit] | –
Cc1ccc(N(C(C)C(=O)NCc2ccccn2)S(C)(=O)=O)cc1C (centres undefined) | – | inactive: 25.2%
Cc1noc(C)c1-c1cc(NC2CCNCC2)ncn1 | active: 22.4 µM | –
O=C(N/N=C/C(Cl)=C/c1ccc([N+](=O)[O-])cc1)C(=O)Nc1ccccc1C(=O)O | inconclusive: 50.1 µM [inhibitor, partial curve, poor fit] | –

Compound | Potency | activity change, negative = inhibition
CC(=O)c1ccc(NC(=O)COC(=O)C2CCN(S(=O)(=O)c3cccs3)CC2)cc1 | inconclusive: 28.2 µM [inhibitor, partial curve, poor fit] | –
Cn1cccc1CN1CCn2c(nnc2-c2ccccc2)C1 | inconclusive: 10 µM [inhibitor, full curve] | –
CC(NC(=O)CSc1ccc2ccccc2n1)C1CC1 (centres undefined) | inconclusive: 112 µM [inhibitor, single point] | –
NC(=O)c1ccc(NC(=O)c2cc(-c3cccs3)nc3ccccc23)cc1 | inconclusive: 31.6 µM [inhibitor, partial curve] | –
COC(=O)c1[nH]c2ccccc2c1NC(=O)C(C)N1CC(C)OC(C)C1 (centres undefined) | inconclusive: 112 µM [inhibitor, partial curve, poor fit] | –
Nc1ccc(Sc2ccccc2)c(Cl)c1 | inconclusive: 89.1 µM [inhibitor, partial curve, poor fit] | –
CCOC(=O)c1c(NC(=O)C2c3ccccc3Oc3ccccc32)sc(C(=O)N(CC)CC)c1C | – | inactive: 3.88%
Nc1nc(=O)n(C2CCCO2)cc1Br (centres undefined) | inconclusive: 35.5 µM [inhibitor, single point] | –
Cc1cccc(N=NC(=S)NNc2cccc(C)c2)c1 | inconclusive: 56.2 µM [inhibitor, partial curve, poor fit] | –
C=CCNC(=S)N/N=C/c1ccc(-c2ccc(OC)cc2)o1 | active: 39.8 µM | –
O=C(CSc1nc2ccccc2nc1N1CCCC1)NCc1ccccc1 | inconclusive: 0.316 µM [inhibitor, full curve, poor fit] | –
CN(C1CCCCC1)S(=O)(=O)c1ccc(C(=O)O)cc1 | – | inactive: 11.7%
Cc1c(NC(=O)CN2CCN(c3ccccc3)CC2)c(=O)n(-c2ccccc2)n1C | – | inactive: 0%
CC(C)(C)NC(=O)C(c1ccnc2ccccc12)n1c(=O)c(-c2cc3ccccc3[nH]2)nc2ccccc21 (centres undefined) | inconclusive: 89.1 µM [inhibitor, single point] | –
CN1C(=O)/C(=C\C=C2/CCCN2C)N(C)C1=S | inconclusive: 44.7 µM [inhibitor, partial curve] | –
O=c1c(/C=N/Nc2ccccc2)c(Sc2nnnn2-c2ccccc2)nc2ccccn12 | – | inactive: -26.8%
COc1ccc(C2Cn3nnc(C(=O)N4CCN(C(=O)Cc5ccc(F)cc5)CC4)c3CO2)cc1 (centres undefined) | inconclusive: 0.891 µM [inhibitor, full curve, poor fit] | –
N#Cc1ccc(CN2CCn3c(nnc3C3CCNCC3)C2)cc1 | inconclusive: 14.1 µM [inhibitor, full curve, poor fit] | –
Cc1ccc(NC(=O)CCN2CCN(C/C=C/c3ccccc3)CC2)cc1C | inconclusive: 12.6 µM [inhibitor, full curve, poor fit] | –
Cc1cccc(-n2ncc3c(Nc4ccc(F)cc4)ncnc32)c1 | inconclusive: 31.6 µM [inhibitor, partial curve] | –
